Test results reported in patent US11872262B2, “Means and methods for treating bacterial infections” (VIB VZW, priority 2017, dated 2024).
Values joined by “and” are separate entries in the source; they are usually repeats but may differ in a detail not shown here. Equal values may be shown once. Not every detail of the peptide structures is certain; ends, links or a residue may be inferred. Some entries share one result that the patent states for a list of compounds. Some compounds share one range, which may span the group rather than tell each member. Residues, ends and D or L forms follow the SMILES beside them.

Experiments:
[1] = system: HeLa cells and E. coli O157:H7; test: Fluorescence microscopy of co-culture of bacteria and mammalian cells; format: cell-based, human; conditions: FITC-labelled peptide
E. coli O157 [2] = format: cell-based, Escherichia coli; conditions: HPLC-grade purified peptides
Procedure: The MICs of active peptides were determined via the Broth microdilution assay according to the EUCAST guideline, which were performed in 96-well polystyrene flat-bottom microtiter plates (BD Biosciences). Briefly, a single colony was inoculated into 5 mL LB medium and grown to the end-exponential growth phase in a shaking incubator at 37° C. Cultures were subsequently diluted to an OD600 of 0.002 ([…]) in fresh LB medium. 100 μL of LB medium with different concentration of peptides ranging from 100 μg/mL to 1 μg/mL were serially diluted to the sterile 96-well plate (at least 3 wells in each plate). Afterward, 100 μL of the diluted bacteria were pipetted into 96-well plates containing different concentration of peptides. In each plate, the grown bacteria with maximum concentration of carrier and medium were considered as positive and negative controls, respectively. Thereafter, 96-well plates was statically incubated overnight at 37° C. to allow bacterial growth. A multipurpose UV/VIS plate reader at OD590 nm, 1 s shaking measured the absorbance of the growth bacteria using a Perkin Elmer spectrophotometer (1420 Multilabel Counter Victor 3).

E. coli O157 [3] = test: Macrolides and peptides interaction (erythromycin pretreatment); format: cell-based, Escherichia coli; conditions: E. coli O157 pretreated with 100 μg/mL erythromycin for 2 h
E. coli O157 [4] = test: Minimum bactericidal concentration (MBC); format: cell-based, Escherichia coli; conditions: HPLC-grade purified peptides
E. coli O157 [5] = test: Peptide activity and stability in presence of serum; format: cell-based, Escherichia coli; conditions: incubated in 25% or 50% human serum for 2 hours; at 25 μg/mL and 50 μg/mL
E. coli O157:H7 [6] = test: Time killing kinetic assay; format: cell-based, Escherichia coli; conditions: for bacterial cell death (CFU determination): after 15 min treatment
E. coli O157 [7] = test: Flow cytometry with FITC-labelled peptide and propidium iodide; format: cell-based, Escherichia coli
E. coli O157:H7 [8] = test: Urinary tract (bladder) infection model; format: in vivo, Swiss mice; conditions: 24 h after treatment

| Structure (SMILES) | accumulation in co-culture of HeLa cells and E. coli O157:H7 [1] | MIC (E. coli O157 [2]) [µg/mL] | MBC in the presence of erythromycin (E. coli O157 [3]) [µg/mL] | MBC (E. coli O157 [4]) [µg/mL] | inhibition of bacterial growth after incubation in human serum (E. coli O157 [5]) | bacterial cell death (CFU determination) (E. coli O157:H7 [6]; listed as Colpeptin1) | bacterial cell death (CFU determination) (E. coli O157:H7 [6]; listed as colpeptin1) [%] | bacterial cell death (E. coli O157:H7 [6]; after 1 h) | bacterial cell death by Propidium Iodide (PI) uptake (E. coli O157 [7]; after 15 min) [%] | cells positive for FITC (peptide uptake) (E. coli O157 [7]; after 15 minutes, listed as colpeptin1) | cells positive for FITC (peptide uptake) (E. coli O157 [7]; after 1 h and beyond) [%] | bacterial cell death by Propidium Iodide (PI) uptake (E. coli O157 [7]; after 3 h) [%] | reduction of the bacterial titer in kidney, colon, bladder and ureter (E. coli O157:H7 [8]; single injection 10 mg/kg intraperitoneally 1 h post-infection) | reduction of the bacterial titer in kidney, colon, bladder and ureter (E. coli O157:H7 [8]; single injection 10 mg/kg via the urethra 1 h post-infection) |
| --- | --- | --- | --- | --- | --- | --- | --- | --- | --- | --- | --- | --- | --- | --- |
| CC(C)C[C@H](NC(=O)CNC(=O)[C@H](CCCNC(=N)N)NC(=O)[C@@H]1CCCN1C(=O)[C@H](CCCNC(=N)N)NC(=O)[C@H](CCCNC(=N)N)NC(=O)[C@@H](NC(=O)[C@H](CC(C)C)NC(=O)[C@H](C)NC(=O)[C@H](CC(C)C)NC(=O)CNC(=O)[C@H](CC(C)C)NC(=O)CNC(=O)[C@@H](N)CCCNC(=N)N)C(C)C)C(=O)NCC(=O)N[C@@H](CC(C)C)C(=O)N[C@@H](C)C(=O)N[C@@H](CC(C)C)C(=O)N[C@H](C(=O)N[C@@H](CCCNC(=N)N)C(=O)N[C@@H](CCCNC(=N)N)C(=O)O)C(C)C [Peptide P2] (H-RGLGLALVRRPRGLGLALVRR-OH) | preferential accumulation of colpeptin1 in bacteria but not in mammalian cells | 6 to 12 | > 100 | 6 to 12 | still able to inhibit bacterial growth | about 50% | 50 | more than 80% | 2.1±1.3 | 97.7±2.9% and 98% | ~100 | 85±13.2 | more than 2 log fold | more than 2 log fold |
| CC(C)C[C@H](NC(=O)[C@H](C)NC(=O)[C@H](CCCNC(=N)N)NC(=O)[C@@H]1CCCN1C(=O)[C@H](CCCNC(=N)N)NC(=O)[C@H](CCCNC(=N)N)NC(=O)[C@H](CC(C)C)NC(=O)[C@H](CC(C)C)NC(=O)[C@@H](NC(=O)[C@@H](NC(=O)[C@H](CC(C)C)NC(=O)[C@H](CC(C)C)NC(=O)[C@H](C)NC(=O)[C@@H](N)CCCNC(=N)N)[C@@H](C)O)[C@@H](C)O)C(=O)N[C@@H](CC(C)C)C(=O)N[C@H](C(=O)N[C@H](C(=O)N[C@@H](CC(C)C)C(=O)N[C@@H](CC(C)C)C(=O)N[C@@H](CCCNC(=N)N)C(=O)N[C@@H](CCCNC(=N)N)C(=O)O)[C@@H](C)O)[C@@H](C)O [Peptide P5] (H-RALLTTLLRRPRALLTTLLRR-OH; N-terminus and C-terminus assumed) |  | 6 to 12 |  | 6 to 12 |  |  |  |  |  |  |  |  |  |  |
| CC(C)C[C@H](NC(=O)CNC(=O)[C@H](CCCNC(=N)N)NC(=O)[C@@H]1CCCN1C(=O)[C@H](CCCNC(=N)N)NC(=O)[C@H](CCCNC(=N)N)NC(=O)[C@H](C)NC(=O)[C@H](CC(C)C)NC(=O)[C@H](CC(C)C)NC(=O)[C@H](C)NC(=O)[C@H](CC(C)C)NC(=O)[C@H](CC(C)C)NC(=O)CNC(=O)[C@@H](N)CCCNC(=N)N)C(=O)N[C@@H](CC(C)C)C(=O)N[C@@H](C)C(=O)N[C@@H](CC(C)C)C(=O)N[C@@H](CC(C)C)C(=O)N[C@@H](C)C(=O)N[C@@H](CCCNC(=N)N)C(=O)N[C@@H](CCCNC(=N)N)C(=O)O [Peptide P14] (H-RGLLALLARRPRGLLALLARR-OH; N-terminus and C-terminus assumed) |  | 6 to 12 |  | 6 to 12 |  |  |  |  |  |  |  |  |  |  |
| CC(C)C[C@H](NC(=O)[C@H](C)NC(=O)[C@@H](N)CCCNC(=N)N)C(=O)N[C@@H](CC(C)C)C(=O)N[C@@H](CCCNC(=N)N)C(=O)N[C@H](C(=O)N[C@@H](CC(C)C)C(=O)N[C@@H](CC(C)C)C(=O)N[C@@H](CCCNC(=N)N)C(=O)N[C@@H](CCCNC(=N)N)C(=O)N1CCC[C@H]1C(=O)N[C@@H](CCCNC(=N)N)C(=O)N[C@@H](C)C(=O)N[C@@H](CC(C)C)C(=O)N[C@@H](CC(C)C)C(=O)N[C@H](C(=O)N[C@H](C(=O)N[C@@H](CC(C)C)C(=O)N[C@@H](CC(C)C)C(=O)N[C@@H](CCCNC(=N)N)C(=O)N[C@@H](CCCNC(=N)N)C(=O)O)[C@@H](C)O)[C@@H](C)O)[C@@H](C)O [Peptide P105] (H-RALLRTLLRRPRALLTTLLRR-OH; N-terminus and C-terminus assumed) |  | 6 to 12 |  | 6 to 12 |  |  |  |  |  |  |  |  |  |  |
